Binding data for 2 molecules are collected here from publication PMC5324091.

Chains of the proteins cited; added tags and fusions are not shown.
UniProt Q00987: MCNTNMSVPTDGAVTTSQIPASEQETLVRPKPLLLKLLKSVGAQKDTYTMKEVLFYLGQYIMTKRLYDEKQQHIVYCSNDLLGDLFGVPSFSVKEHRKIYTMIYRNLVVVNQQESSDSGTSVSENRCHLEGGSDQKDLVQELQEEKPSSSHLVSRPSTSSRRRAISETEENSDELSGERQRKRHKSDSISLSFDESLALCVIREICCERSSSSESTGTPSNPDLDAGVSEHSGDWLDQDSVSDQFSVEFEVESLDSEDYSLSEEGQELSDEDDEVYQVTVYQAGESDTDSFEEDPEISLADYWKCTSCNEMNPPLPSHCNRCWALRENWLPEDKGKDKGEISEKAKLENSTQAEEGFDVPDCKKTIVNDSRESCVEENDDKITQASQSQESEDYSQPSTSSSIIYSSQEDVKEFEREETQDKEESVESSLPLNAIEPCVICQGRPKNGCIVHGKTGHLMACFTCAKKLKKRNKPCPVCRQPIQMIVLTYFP

For the assay, the target named is wild-type human Mdm2 (human) (UniProt Q00987). The assay is described as follows: co-IP; Mdm2 and Flag-USP48 (wild type, C98S or S1) overexpressed in HEK293T; MG132 15 uM for 4 h; lysis in 150 mM NaCl, 50 mM Tris-HCl pH 8.0, 1% Triton X-100; immunoprecipitation at 4 °C with anti-Mdm2 Ab1 or anti-Flag M2, protein G-Sepharose; Western blot. In general terms: A western blot detects proteins with antibodies after separation by electrophoresis.

Results are given in words; binding and its absence hold for the method and conditions named. Binding seen in cells or lysates may run through a third protein. Some binding calls cover weakened binding; strength is not graded here. Sequences can lack the tags named with a protein.

B1: Flag-tagged wild-type USP48 (ubiquitin-specific peptidase 48) (enzyme, UniProt Q86UV5 1-1035)
chain: MAPRLQLEKAAWRWAETVRPEEVSQEHIETAYRIWLEPCIRGVCRRNCKGNPNCLVGIGEHIWLGEIDENSFHNIDDPNCERRKKNSFVGLTNLGATCYVNTFLQVWFLNLELRQALYLCPSTCSDYMLGDGIQEEKDYEPQTICEHLQYLFALLQNSNRRYIDPSGFVKALGLDTGQQQDAQEFSKLFMSLLEDTLSKQKNPDVRNIVQQQFCGEYAYVTVCNQCGRESKLLSKFYELELNIQGHKQLTDCISEFLKEEKLEGDNRYFCENCQSKQNATRKIRLLSLPCTLNLQLMRFVFDRQTGHKKKLNTYIGFSEILDMEPYVEHKGGSYVYELSAVLIHRGVSAYSGHYIAHVKDPQSGEWYKFNDEDIEKMEGKKLQLGIEEDLAEPSKSQTRKPKCGKGTHCSRNAYMLVYRLQTQEKPNTTVQVPAFLQELVDRDNSKFEEWCIEMAEMRKQSVDKGKAKHEEVKELYQRLPAGAEPYEFVSLEWLQKWLDESTPTKPIDNHACLCSHDKLHPDKISIMKRISEYAADIFYSRYGGGPRLTVKALCKECVVERCRILRLKNQLNEDYKTVNNLLKAAVKGSDGFWVGKSSLRSWRQLALEQLDEQDGDAEQSNGKMNGSTLNKDESKEERKEEEELNFNEDILCPHGELCISENERRLVSKEAWSKLQQYFPKAPEFPSYKECCSQCKILEREGEENEALHKMIANEQKTSLPNLFQDKNRPCLSNWPEDTDVLYIVSQFFVEEWRKFVRKPTRCSPVSSVGNSALLCPHGGLMFTFASMTKEDSKLIALIWPSEWQMIQKLFVVDHVIKITRIEVGDVNPSETQYISEPKLCPECREGLLCQQQRDLREYTQATIYVHKVVDNKKVMKDSAPELNVSSSETEEDKEEAKPDGEKDPDFNQSNGGTKRQKISHQNYIAYQKQVIRRSMRHRKVRGEKALLVSANQTLKELKIQIMHAFSVAPFDQNLSIDGKILSDDCATLGTLGVIPESVILLKADEPIADYAAMDDVMQVCMPEEGFKGTGLLGH
As for B1, the binding entry is given as “binds”.

B2: Flag-tagged USP48 mutant C98S (enzyme, UniProt Q86UV5 1-1035)
chain: MAPRLQLEKAAWRWAETVRPEEVSQEHIETAYRIWLEPCIRGVCRRNCKGNPNCLVGIGEHIWLGEIDENSFHNIDDPNCERRKKNSFVGLTNLGATSYVNTFLQVWFLNLELRQALYLCPSTCSDYMLGDGIQEEKDYEPQTICEHLQYLFALLQNSNRRYIDPSGFVKALGLDTGQQQDAQEFSKLFMSLLEDTLSKQKNPDVRNIVQQQFCGEYAYVTVCNQCGRESKLLSKFYELELNIQGHKQLTDCISEFLKEEKLEGDNRYFCENCQSKQNATRKIRLLSLPCTLNLQLMRFVFDRQTGHKKKLNTYIGFSEILDMEPYVEHKGGSYVYELSAVLIHRGVSAYSGHYIAHVKDPQSGEWYKFNDEDIEKMEGKKLQLGIEEDLAEPSKSQTRKPKCGKGTHCSRNAYMLVYRLQTQEKPNTTVQVPAFLQELVDRDNSKFEEWCIEMAEMRKQSVDKGKAKHEEVKELYQRLPAGAEPYEFVSLEWLQKWLDESTPTKPIDNHACLCSHDKLHPDKISIMKRISEYAADIFYSRYGGGPRLTVKALCKECVVERCRILRLKNQLNEDYKTVNNLLKAAVKGSDGFWVGKSSLRSWRQLALEQLDEQDGDAEQSNGKMNGSTLNKDESKEERKEEEELNFNEDILCPHGELCISENERRLVSKEAWSKLQQYFPKAPEFPSYKECCSQCKILEREGEENEALHKMIANEQKTSLPNLFQDKNRPCLSNWPEDTDVLYIVSQFFVEEWRKFVRKPTRCSPVSSVGNSALLCPHGGLMFTFASMTKEDSKLIALIWPSEWQMIQKLFVVDHVIKITRIEVGDVNPSETQYISEPKLCPECREGLLCQQQRDLREYTQATIYVHKVVDNKKVMKDSAPELNVSSSETEEDKEEAKPDGEKDPDFNQSNGGTKRQKISHQNYIAYQKQVIRRSMRHRKVRGEKALLVSANQTLKELKIQIMHAFSVAPFDQNLSIDGKILSDDCATLGTLGVIPESVILLKADEPIADYAAMDDVMQVCMPEEGFKGTGLLGH
B2: the binding entry is “binds”.
